Primary screen of a compound library

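Whole-parasite assay of Trypanosoma brucei over 72 hours; the read-out is not stated. Compounds at 30 µM. Higher reads as stronger inhibition (inferred: compounds with an IC50 in retests scored well above the rest). Values scatter widely below zero; nearly all retest evidence comes from the higher of the two concentrations used. About 64,000 compounds were tested under these conditions; 1.5% (about 940) showed 50% or more at least once.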

Each number is a percent effect as filed.
How 0% and 100% were set is not recorded. Most values in the screen are low, and negative values occur.
Compounds were drawn at random from those tested, without regard to their results.

SMILES,percent effect
Cc1ccc(S(=O)(=O)Nc2ccc(-n3nnn(C)c3=O)cc2)cc1,4.716
Cc1ncsc1CCN(C)C(=O)c1ncccc1O,0.7053
CN(c1ncc(C(=O)NCc2ccccc2)c(N)n1)C1CCCCC1,91.96
O=C(NCCC(=O)N1CCCC1)c1ccc(SCc2cccnc2)cc1,6.705
O=C(c1ccoc1)N1CCCN(CC2CCOc3ccccc3C2)CC1 (stereo not given),-29.26
CCOc1ccc(NC(=O)c2oc(CC)cc2C)cc1CO,-20.31
CN(C)Cc1nc(-n2cnc(C(=O)NC3CCCC3)c2)n2ccccc12,5.333
O=C(O)C(F)(F)F.O=C(O)C(F)(F)F.[H][C@@]12CN(CC3CCOC3)C[C@]1([H])OCCN2CC(=O)NC (stereo not given in full),-19.62
Cc1nccn1CC1CCCN1S(=O)(=O)Cc1ccon1 (stereo not given),-6.336
CCc1nn2c(=N)c(C#N)n[nH]c2c1-c1ccc(OC)cc1,16.44
C[C@@H]1CN(C(=O)c2cnc(C3CC3)nc2)CC[C@@]1(O)C1CCOCC1,9.774
COc1cccc(N2Cc3nc(=O)n(C(C)C)n3C2=O)c1,-40.88
CCOCCN1Cc2cnn(C)c2C(COCC)C1.O=C(O)C(F)(F)F.O=C(O)C(F)(F)F (stereo not given),-6.123
Cc1cc(C(F)(F)F)cc(N2CCN(Cc3ccccc3)CC(O)C2)n1 (stereo not given),-18.23
O=C(O)C(F)(F)F.[H][C@@]12CCN(Cc3ccoc3)CC[C@]1([H])[C@@H](COC)CN(CC1CC1)C2=O,-45.52
O=C(O)C(F)(F)F.O=C(O)C(F)(F)F.O=C(O)C(F)(F)F.[H][C@@]12CN(Cc3ccncc3)C[C@]1([H])[C@@H](OC)CCN2Cc1c(C)noc1C,-48.76
Cc1nc(CN2CCCC(Cn3cc(CCO)nn3)C2)c2ccccn12 (stereo not given),-17.24
Cn1nc(COc2cccnc2)c2c1CCN(Cc1ccco1)C2.O=C(O)C(F)(F)F.O=C(O)C(F)(F)F,-5.833
[H][C@@]12OCCN(C(=O)c3ccc(C)o3)[C@@]1([H])CC[C@H]2OCC1CCOCC1,29.5
O=C(O)C1(n2ccc(-c3ccco3)n2)CCN(Cc2cccnc2)CC1,-43.34
Cc1c[nH]nc1C1CCCN1Cc1ccncc1 (stereo not given),-23.61
CN1CCOC(CNCC(=O)NCCc2ccc3c(c2)OCCO3)C1 (stereo not given),-40.17
COCC(=O)N1CCn2c(COc3cccnc3)cnc2C1C.O=C(O)C(F)(F)F (stereo not given),-0.4642
Cl.Cn1ccnc1N1CCN(C(=O)Cc2ccc(F)cc2)CC1,32.92
Cc1nc(-c2ccccc2F)sc1C(=O)N1CCC(=O)CC1,17.54
COCCOc1ccc(NC(=O)N2CCOC(C(N)=O)C2)cc1F (stereo not given),-16.38
CCn1nc(C)cc1C(=O)OCC1CC(=O)N(Cc2ccccc2)C1 (stereo not given),-85.37
Cn1c(N)c2c(=O)n(C)c(-c3ccccc3)cc2c(C#N)c1=O,-30.47
CNCC[C@H]1CC(C)(C)Oc2ccc(OCC3CC3)cc21,86.36
Cc1nn(C)c2c(NCc3cccnc3)nc(C3CC3)nc12,42.11
CCN(Cc1ccoc1)C(=O)NC1CCN(CC=C(C)C)CC1,-16.2
Cc1ccc(C(CNCC2CC2)N2CCOCC2)s1 (stereo not given),-57.01
CN(C)CCN1CCN(Cc2cccs2)Cc2cccnc21.O=C(O)C(F)(F)F.O=C(O)C(F)(F)F.O=C(O)C(F)(F)F,-59.56
O=C(O)C(F)(F)F.O=C(O)C(F)(F)F.[H][C@@]12COC[C@H](C(=O)NCc3ccccn3)[C@]1([H])CN(c1ncccn1)C2,-15.24
[H][C@@]12COC[C@]1([H])[C@@H](OCC1CCOCC1)CN2c1ncccn1,-57.52
[H][C@]12CCN(S(=O)(=O)Cc3ccccc3)[C@@]1([H])CC[C@H](COC)O2,-2.442
CC(=O)Nc1nc(C(=O)N2CCCC(n3nc(C)cc3C)C2)cs1 (stereo not given),-40.76
COc1ccc(C2CCCN2C(=O)c2cc(C(C)C)on2)cc1 (stereo not given),0.744
COCCNC(=O)c1cc(-n2cccc2)ccc1Cl,-39.01
Cc1cccc(C(C(=O)N(C)Cc2ccco2)N(C)C)c1 (stereo not given),-34.04
Cc1cc(-c2cnc(NC3CCCC3)nc2-c2ccco2)on1,60.69
CC1CCN(CCNC(=O)c2ccn(-c3ccc(F)cc3)n2)CC1,40.75
Cc1ccc(CN2CCc3ncc(CNS(C)(=O)=O)n3CC2)o1.O=C(O)C(F)(F)F,14.79
Cc1cc2c(N3CCC(N(C)Cc4nccs4)CC3)ncnc2s1,3.251
COc1ccc(NC(=O)N2CCCC2c2ccncc2)cn1 (stereo not given),12.4
CN(Cc1ccco1)C(=O)NCc1ccnc(SC(C)(C)C)c1,-11.86
CC(C)NC(=O)Nc1ccc(CS(=O)(=O)C(C)(C)C)cc1,9.328
CN(Cc1ccc(CCC(C)(C)O)cc1)CC1(CO)CC1,-22.4
NCc1ccc(Oc2cccc(Cl)c2Cl)cc1,-54.14
O=C1CN(C(=O)C2CCCCC2)CC(O)CN1Cc1ccc(Cl)cc1 (stereo not given),21.47
CS(=O)(=O)NCCCn1ccc2ccccc21,-31.32
c1c(CN2CCOCC2)nc2n1CCN(CC1CC1)C2,-34.4
CN1CCN([C@@H]2CN(C(=O)c3cc4ccc(F)cc4[nH]3)C[C@H]2O)CC1,10.23
CC(C)NC(=O)N1CCN(S(=O)(=O)C2CC2)CC2(CNC(=O)C2)C1 (stereo not given),30.52
Cc1cnc(C)c(N2CCN(Cc3ccc(-c4cc[nH]n4)o3)CC2)n1,28.77
COc1c(Br)cccc1CCNC(=O)c1csnn1,-9.07
CNC(=O)C1CCN(C(=O)c2cccn2Cc2cccs2)CC1,-12.64
COc1cccc(C2CN(CCc3ccncc3)CCO2)c1 (stereo not given),-23.89
Cc1nc(CN(Cc2cccs2)C2CCS(=O)(=O)C2)oc1C (stereo not given),4.929
Cn1ccnc1CNC[C@H]1Cn2cc(-c3ccccc3)nc2CO1,-5.341
CCCc1csc(-c2ccc(S(C)(=O)=O)cc2)n1,-2.835
Cc1ncnc2c1CCN(S(=O)(=O)C1CC1)CC2,-0.6042
CCN(CC)C(=O)CN1CCCC1C(=O)N(C)C (stereo not given),-4.611
CN1CC2(CCN(C(=O)c3ccc(=O)n(C)c3)CC2)CC1=O,-45.75
CN(CCC#N)C(=O)Cn1cnc2c(Br)cccc2c1=O,-55.55
COc1ccc([C@@H]2CN(Cc3cccnc3N)C[C@H]2N(C)C)cc1,22.26
O=C(NCCOc1ccc2c(c1)OCO2)C1CC(=O)N(C2CC2)C1 (stereo not given),-4.516
CCN1CC2(CC1=O)CN(Cc1cccs1)CCN(C(=O)C(C)C)C2 (stereo not given),17.61
Cc1cccnc1CNCC1(O)CCCN(CC2CCCCC2)C1=O (stereo not given),32.82
O=C(O)C(F)(F)F.[H][C@@]12CN(Cc3sccc3C)C[C@H](C(=O)NCCOC)[C@]1([H])CCO2,-8.616
Cc1ccc(S(=O)(=O)NC(=O)CCc2ccccc2)cc1N(C)C,-27.8
c1cnc(CC2COCCN(C3CCCCC3)C2)cn1 (stereo not given),7.521
CCn1ncc2c1CCCC2NCc1cccc2c1OCO2 (stereo not given),-28.61
CCCC(=O)N1CCc2c(CNS(C)(=O)=O)cncc2C1.Cl,-6.498
[H][C@]12CN(CC(=O)N(C)C)C(=O)[C@@]1([H])CN(c1cc(OC)ncn1)C2,-46.75
CC(C)S(=O)(=O)C(C)C(=O)NCc1ccccc1COc1ccccc1 (stereo not given),-58.48
O=C(NC[C@H]1CCCC[C@H]1O)c1cccc2[nH]c(-c3ccco3)nc12,13.65
CCn1ncc(C(=O)N2CCN(CC3CCCO3)CC2)c1C (stereo not given),22.17
CN(C)C(C(=O)N1CCN(CC(F)(F)F)CC1)c1ccccc1F (stereo not given),-38.75
O=C(Nc1cc(-c2ccccc2)on1)N1CC[C@H](O)C1,-6.279
Cc1nn(-c2ccccc2)cc1C(=O)N1CCCN2CCCC2C1 (stereo not given),1.75
Cc1cccc(CN2CCOCC3(CCN(C4CCOCC4)C3)C2)n1.O=C(O)C(F)(F)F.O=C(O)C(F)(F)F.O=C(O)C(F)(F)F (stereo not given),39.9
CCN(Cc1ccc2c(c1)OCCO2)C(=O)NC(C)Cn1ccnc1 (stereo not given),3.519
Cl.NC1CCN(C(=O)c2c(F)cccc2Br)CC1,-27.29
CCN(Cc1cnn(C)c1)C[C@H]1CC[C@@H](Cc2ccc(OC)nc2)O1,3.947
CN1CCNC(=O)C12CCN(C(=O)c1ccc3[nH]c(=O)[nH]c3c1)CC2,29.1
CCSc1ccc(NC(=O)N2CCCC2c2ccncc2)cn1 (stereo not given),7.197
CC(C)C(=O)N1CCN(Cc2csc(-c3ncccn3)n2)CC1,9.981
Cc1nn(Cn2ccc(C(=O)N3CCCC(C)C3)n2)c(C)c1Cl (stereo not given),-13.51
CC1(C)COCCN1C(=O)CCc1nc(-c2ccncc2)no1,-123

Once more, the final 11:

{"smiles": "O=C(Nc1cc(-c2ccccc2)on1)N1CC[C@H](O)C1", "percent effect": -6.279}
{"smiles": "Cc1nn(-c2ccccc2)cc1C(=O)N1CCCN2CCCC2C1", "stereo": "stereo not given", "percent effect": 1.75}
{"smiles": "Cc1cccc(CN2CCOCC3(CCN(C4CCOCC4)C3)C2)n1.O=C(O)C(F)(F)F.O=C(O)C(F)(F)F.O=C(O)C(F)(F)F", "stereo": "stereo not given", "percent effect": 39.9}
{"smiles": "CCN(Cc1ccc2c(c1)OCCO2)C(=O)NC(C)Cn1ccnc1", "stereo": "stereo not given", "percent effect": 3.519}
{"smiles": "Cl.NC1CCN(C(=O)c2c(F)cccc2Br)CC1", "percent effect": -27.29}
{"smiles": "CCN(Cc1cnn(C)c1)C[C@H]1CC[C@@H](Cc2ccc(OC)nc2)O1", "percent effect": 3.947}
{"smiles": "CN1CCNC(=O)C12CCN(C(=O)c1ccc3[nH]c(=O)[nH]c3c1)CC2", "percent effect": 29.1}
{"smiles": "CCSc1ccc(NC(=O)N2CCCC2c2ccncc2)cn1", "stereo": "stereo not given", "percent effect": 7.197}
{"smiles": "CC(C)C(=O)N1CCN(Cc2csc(-c3ncccn3)n2)CC1", "percent effect": 9.981}
{"smiles": "Cc1nn(Cn2ccc(C(=O)N3CCCC(C)C3)n2)c(C)c1Cl", "stereo": "stereo not given", "percent effect": -13.51}
{"smiles": "CC1(C)COCCN1C(=O)CCc1nc(-c2ccncc2)no1", "percent effect": -123}

Data taken from ChEMBL document CHEMBL3988442, “University of Dundee, Small-Polar-MMV Screening Library” (2021).